Measurements from patent publication US8378104B2 (OSI Pharmaceuticals, LLC, priority 2010, dated 2013).

Chains of the proteins cited; added tags and fusions are not shown. A line that says so, or that is headed by a name, gives the form on record, which may keep a tag or linker. Residues count along the entry.
UniProt O43318, 1-303 with tags or gaps limits assumed: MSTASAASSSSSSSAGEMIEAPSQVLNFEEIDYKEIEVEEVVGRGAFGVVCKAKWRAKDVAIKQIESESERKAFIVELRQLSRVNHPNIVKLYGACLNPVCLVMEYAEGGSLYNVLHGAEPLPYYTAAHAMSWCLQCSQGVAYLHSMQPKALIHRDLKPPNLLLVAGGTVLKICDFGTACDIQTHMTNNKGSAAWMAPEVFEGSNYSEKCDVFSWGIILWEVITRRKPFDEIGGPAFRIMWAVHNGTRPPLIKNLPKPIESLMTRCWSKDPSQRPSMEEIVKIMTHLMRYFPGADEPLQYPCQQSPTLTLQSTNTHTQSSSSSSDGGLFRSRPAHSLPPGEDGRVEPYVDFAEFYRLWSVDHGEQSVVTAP

The molecules below were run against TAK1-TAB1 fusion protein (Homo sapiens, UniProt O43318) (assay: TAK1 biochemical assay (AlphaScreen, GST-MAP2K7 substrate)). Conditions: read-out: mean TAK1 IC50 (Col. A).

Row | Structure (SMILES) | IC50
1 | CC(=O)N1CCC(n2cc(-c3cnc(N)c4oc(-c5ccc6[nH]c(C(N)=O)cc6c5)cc34)cn2)CC1 | 100 to 1000 nM
2 | Nc1ncc(-c2cnn(C3CCNCC3)c2)c2cc(-c3cccc4c3Oc3ccccc3S4)oc12 | 100 to 1000 nM
3 | CC(C)(C)[Si](C)(C)OC1CCC(n2cc(-c3cnc(N)c4oc(-c5cccc6cnccc56)cc34)cn2)CC1 (stereo not drawn) | > 10000 nM

The match of structure and compound is tentative.
